Results are given in words; binding and its absence hold for the method and conditions named. Binding seen in cells or lysates may run through a third protein. Some entries that bind do so weakly or less than the wild type.

Amino acid sequences for entries named in this document (tags omitted).
UniProt P40692: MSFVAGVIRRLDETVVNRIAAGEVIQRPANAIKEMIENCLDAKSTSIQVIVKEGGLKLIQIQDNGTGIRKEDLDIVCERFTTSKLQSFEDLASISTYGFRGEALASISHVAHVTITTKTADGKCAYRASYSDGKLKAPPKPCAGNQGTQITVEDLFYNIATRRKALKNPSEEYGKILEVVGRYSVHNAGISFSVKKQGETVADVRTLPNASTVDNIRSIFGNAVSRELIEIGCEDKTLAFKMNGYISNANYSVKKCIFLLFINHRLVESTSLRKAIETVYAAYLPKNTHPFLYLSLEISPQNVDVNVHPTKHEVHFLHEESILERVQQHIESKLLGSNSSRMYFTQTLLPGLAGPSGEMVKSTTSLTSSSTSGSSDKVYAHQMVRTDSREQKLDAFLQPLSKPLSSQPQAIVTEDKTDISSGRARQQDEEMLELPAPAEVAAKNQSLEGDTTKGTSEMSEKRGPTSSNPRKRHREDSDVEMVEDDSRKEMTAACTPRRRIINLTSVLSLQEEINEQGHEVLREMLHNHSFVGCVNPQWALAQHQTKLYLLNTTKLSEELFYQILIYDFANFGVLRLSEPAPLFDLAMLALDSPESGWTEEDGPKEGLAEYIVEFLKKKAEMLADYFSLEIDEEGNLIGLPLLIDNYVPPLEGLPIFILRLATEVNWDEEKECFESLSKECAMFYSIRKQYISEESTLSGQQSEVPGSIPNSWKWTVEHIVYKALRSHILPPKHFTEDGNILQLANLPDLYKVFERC
UniProt P01106: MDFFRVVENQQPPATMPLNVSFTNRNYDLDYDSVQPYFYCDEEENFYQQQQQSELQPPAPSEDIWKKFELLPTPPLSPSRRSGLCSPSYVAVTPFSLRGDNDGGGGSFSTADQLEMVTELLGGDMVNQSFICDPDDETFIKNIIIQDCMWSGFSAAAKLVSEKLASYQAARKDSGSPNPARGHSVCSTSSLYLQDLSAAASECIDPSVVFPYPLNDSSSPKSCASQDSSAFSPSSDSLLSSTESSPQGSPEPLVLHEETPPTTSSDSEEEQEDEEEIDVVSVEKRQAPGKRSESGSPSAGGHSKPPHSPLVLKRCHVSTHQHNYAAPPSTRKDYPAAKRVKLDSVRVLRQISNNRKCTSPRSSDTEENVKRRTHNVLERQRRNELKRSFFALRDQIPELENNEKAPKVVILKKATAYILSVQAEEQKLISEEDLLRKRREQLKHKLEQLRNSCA

The values that follow come from article PMC2557556.

This assay has as its target MLH1 in human cell extracts (human (in human cell extracts)) (UniProt P40692). In words: co-IP; co-immunoprecipitation from human cell extracts.

On to “c-MYC in human cell extracts (from UniProt P01106 1-454)”, for which the binding result is “binds”.
